In paper PMC7794610 one finds binding data, which are given here for two molecules.

For the test, the target named is MNT (rat, endogenous) (rat (endogenous in UR61-derived cells and C6)). Nature of the test: affinity purification with mass spectrometry; anti-MNT immunoprecipitation from URMT and URMax34 cells treated with 100 µM Zn2SO4 for 24 h; on-beads trypsin digestion, Q-Exactive, MaxQuant LFQ against IgG control.

Results are given in words; binding and its absence hold for the method and conditions named. Binding seen in cells or lysates may run through a third protein. These calls come from enrichment with a bait or labelling near it, and not all partners need be listed.

B1: AMPD2 (rat, endogenous) (protein, UniProt Q02356 1-824)
chain: MASYPGPGKSKAKYPFKKRASLQASAAAPEARSGLGASPLQSARSLPGTAPCLKHFPLDLRTSMDGKCKEIAEELFSRSLAESELRSAPYEFPEESPIEQLEERRQRLERQISQDVKLEPDILLRAKQDFLKTDSDSDLQLYKEQGEGQGDRGLWERDVVLEREFQRVIISGEEKCGVPFTDLLDAAKSVVRALFIREKYMALSLQSFCPTTRRYLQQLAEKPLETRTYEQSPDTPVSADAPVHPPALEQHPYEHCEPSTMPGDLGLGLRMVRGVVHVYTRRDPDEHCPEVELPYPDLQEFVADVNVLMALIINGPIKSFCYRRLQYLSSKFQMHVLLNEMKELAAQKKVPHRDFYNIRKVDTHIHASSCMNQKHLLRFIKRAMKRHLEEIVHVEQGREQTLREVFESMNLTAYDLSVDTLDVHADRNTFHRFDKFNAKYNPIGESVLREIFIKTDNKISGKYFAHIIKEVMSDLEESKYQNAELRLSIYGRSRDEWDKLARWAVNHRVHSPNVRWLVQVPRLFDVYRTKGQLANFQEMLENIFLPLFEATVHPASHPELHLFLEHVDGFDSVDDESKPENHVFNLESPLPEAWVEEDNPPYAYYLYYTFANMAMLNHLRRQRGFHTFVLRPHCGEAGPIHHLVSAFMLAENISHGLLLRKAPVLQYLYYLAQIGIAMSPLSNNSLFLSYHRNPLPEYLSRGLMVSLSTDDPLQFHFTKEPLMEEYSIATQVWKLSSCDMCELARNSVLMSGFSHKVKSHWLGPNYTKEGPEGNDIRRTNVPDIRVGYRYETLCQELALITQAVQSEMLETIPEEVGIVMSPGP
B1: the binding entry is “binds”.

B2: CCDC6 (rat, endogenous) (protein, UniProt D4AEK9 1-470)
chain: MADSASESDTDAAGGGPAAMQSSCSATSGGSGGGGGGKSGGIVISPFRLEELTNRLASLQQENKVLKIELETYKLKCKALQEENRDLRKASVTIQARAEQEEEFISNTLFKKIQALQKEKETLAVNYEKEEEFLTNELSRKLMQLQHEKAELEQHLEQEQEFQVNKLMKKIKKLENDTISKQLTLEQLRREKIDLENTLEQEQEALVNRLWKRMDKLEAEKRILQEKLDQPVSAPPSPRDISMEIDSPENMMRHIRFLKNEVERLKKQLRAAQLQHSEKMAQYLEEERHMREENLRLQRKLQREMERREALCRQLSESESSLEMDDERYFNEMSAQGLRPRTVSSPIPYTPSPSSSRPISPGLSYASHTVGFTPPTSLTRAGTSYYNSPGLHVQHMGASHGITRPSPRRSSSPDKFKRPTPPPSPNTQSPVQPPPPPPPPPMQPAVPSAATTTQPAPSQAQHPVHPSSQP
For the molecule B2, the binding result was “binds”.
